Results are given in words; binding and its absence hold for the method and conditions named. Binding seen in cells or lysates may run through a third protein. Some binding calls cover weakened binding; strength is not graded here.
Key:
[1] = target: NFIB (endogenous) (human (endogenous in U2OS, BT-474, ZR-75-1)) (UniProt O00712); assay: co-IP; endogenous proteins, chromatin fraction (CSK buffer + 0.5% Triton X-100, DNase I) of U2OS synchronized at G1/S boundary by double-thymidine block; IP anti-NFIB with blots of partners, and IP of partners with blot of NFIB
[2] = target: NFIB (endogenous) (human (endogenous in U2OS, BT-474, ZR-75-1)) (UniProt O00712); assay: co-IP; endogenous proteins, U2OS whole cell extracts; lysis buffer 50 mM Tris-HCl pH 7.5, 150 mM NaCl, 0.3% NP-40, 2 mM EDTA; 500 μg protein, 2 μg antibody, 4 °C 12 h, protein A or G beads; IP anti-NFIB, immunoblot of partners
[3] = target: GST-fused MH1-deleted mutant of NFIB (1-68 aa + 174-495 aa) (UniProt O00712); assay: pull-down; GST fusion proteins immobilised on glutathione-Sepharose 4B beads; 10 μl in vitro transcribed/translated protein, 2 h 4 °C; 10 mM HEPES pH 7.6, 3 mM MgCl2, 100 mM KCl, 5 mM EDTA, 5% glycerol, 0.5% CA630; only the target purified
[4] = target: GST-fused full-length NFIB (UniProt O00712); assay: as above
[5] = target: GST-fused C-terminal fragment of NFIB (69-495 aa) (UniProt O00712); assay: as above
[6] = target: GST-fused N-terminal fragment of NFIB (1-173 aa) (UniProt O00712); assay: as above

binding [1] | binding [2] | binding [3] | binding [4] | binding [5] | binding [6] | Binder
binds | binds | – | – | – | – | MCM6 (endogenous) (protein, UniProt Q14566 1-821) MDLAAAAEPGAGSQHLEVRDEVAEKCQKLFLDFLEEFQSSDGEIKYLQLAEELIRPERNTLVVSFVDLEQFNQQLSTTIQEEFYRVYPYLCRALKTFVKDRKEIPLAKDFYVAFQDLPTRHKIRELTSSRIGLLTRISGQVVRTHPVHPELVSGTFLCLDCQTVIRDVEQQFKYTQPNICRNPVCANRRRFLLDTNKSRFVDFQKVRIQETQAELPRGSIPRSLEVILRAEAVESAQAGDKCDFTGTLIVVPDVSKLSTPGARAETNSRVSGVDGYETEGIRGLRALGVRDLSYRLVFLACCVAPTNPRFGGKELRDEEQTAESIKNQMTVKEWEKVFEMSQDKNLYHNLCTSLFPTIHGNDEVKRGVLLMLFGGVPKTTGEGTSLRGDINVCIVGDPSTAKSQFLKHVEEFSPRAVYTSGKASSAAGLTAAVVRDEESHEFVIEAGALMLADNGVCCIDEFDKMDVRDQVAIHEAMEQQTISITKAGVKATLNARTSILAAANPISGHYDRSKSLKQNINLSAPIMSRFDLFFILVDECNEVTDYAIARRIVDLHSRIEESIDRVYSLDDIRRYLLFARQFKPKISKESEDFIVEQYKHLRQRDGSGVTKSSWRITVRQLESMIRLSEAMARMHCCDEVQPKHVKEAFRLLNKSIIRVETPDVNLDQEEEIQMEVDEGAGGINGHADSPAPVNGINGYNEDINQESAPKASLRLGFSEYCRISNLIVLHLRKVEEEEDESALKRSELVNWYLKEIESEIDSEEELINKKRIIEKVIHRLTHYDHVLIELTQAGLKGSTEGSESYEEDPYLVVNPNYLLED
– | – | binds | binds | binds | – | MCM6 (in vitro transcribed/translated) (protein, UniProt Q14566 1-821) MDLAAAAEPGAGSQHLEVRDEVAEKCQKLFLDFLEEFQSSDGEIKYLQLAEELIRPERNTLVVSFVDLEQFNQQLSTTIQEEFYRVYPYLCRALKTFVKDRKEIPLAKDFYVAFQDLPTRHKIRELTSSRIGLLTRISGQVVRTHPVHPELVSGTFLCLDCQTVIRDVEQQFKYTQPNICRNPVCANRRRFLLDTNKSRFVDFQKVRIQETQAELPRGSIPRSLEVILRAEAVESAQAGDKCDFTGTLIVVPDVSKLSTPGARAETNSRVSGVDGYETEGIRGLRALGVRDLSYRLVFLACCVAPTNPRFGGKELRDEEQTAESIKNQMTVKEWEKVFEMSQDKNLYHNLCTSLFPTIHGNDEVKRGVLLMLFGGVPKTTGEGTSLRGDINVCIVGDPSTAKSQFLKHVEEFSPRAVYTSGKASSAAGLTAAVVRDEESHEFVIEAGALMLADNGVCCIDEFDKMDVRDQVAIHEAMEQQTISITKAGVKATLNARTSILAAANPISGHYDRSKSLKQNINLSAPIMSRFDLFFILVDECNEVTDYAIARRIVDLHSRIEESIDRVYSLDDIRRYLLFARQFKPKISKESEDFIVEQYKHLRQRDGSGVTKSSWRITVRQLESMIRLSEAMARMHCCDEVQPKHVKEAFRLLNKSIIRVETPDVNLDQEEEIQMEVDEGAGGINGHADSPAPVNGINGYNEDINQESAPKASLRLGFSEYCRISNLIVLHLRKVEEEEDESALKRSELVNWYLKEIESEIDSEEELINKKRIIEKVIHRLTHYDHVLIELTQAGLKGSTEGSESYEEDPYLVVNPNYLLED
binds | binds | – | – | – | – | CDC6 (cell division cycle protein 6) (endogenous) (protein, UniProt Q99741 1-560) MPQTRSQAQATISFPKRKLSRALNKAKNSSDAKLEPTNVQTVTCSPRVKALPLSPRKRLGDDNLCNTPHLPPCSPPKQGKKENGPPHSHTLKGRRLVFDNQLTIKSPSKRELAKVHQNKILSSVRKSQEITTNSEQRCPLKKESACVRLFKQEGTCYQQAKLVLNTAVPDRLPAREREMDVIRNFLREHICGKKAGSLYLSGAPGTGKTACLSRILQDLKKELKGFKTIMLNCMSLRTAQAVFPAIAQEICQEEVSRPAGKDMMRKLEKHMTAEKGPMIVLVLDEMDQLDSKGQDVLYTLFEWPWLSNSHLVLIGIANTLDLTDRILPRLQAREKCKPQLLNFPPYTRNQIVTILQDRLNQVSRDQVLDNAAVQFCARKVSAVSGDVRKALDVCRRAIEIVESDVKSQTILKPLSECKSPSEPLIPKRVGLIHISQVISEVDGNRMTLSQEGAQDSFPLQQKILVCSLMLLIRQLKIKEVTLGKLYEAYSKVCRKQQVAAVDQSECLSLSGLLEARGILGLKRNKETRLTKVFFKIEEKEIEHALKDKALIGNILATGLP
– | – | – | binds | binds | binds | CDC6 (in vitro transcribed/translated) (protein, UniProt Q99741 1-560) MPQTRSQAQATISFPKRKLSRALNKAKNSSDAKLEPTNVQTVTCSPRVKALPLSPRKRLGDDNLCNTPHLPPCSPPKQGKKENGPPHSHTLKGRRLVFDNQLTIKSPSKRELAKVHQNKILSSVRKSQEITTNSEQRCPLKKESACVRLFKQEGTCYQQAKLVLNTAVPDRLPAREREMDVIRNFLREHICGKKAGSLYLSGAPGTGKTACLSRILQDLKKELKGFKTIMLNCMSLRTAQAVFPAIAQEICQEEVSRPAGKDMMRKLEKHMTAEKGPMIVLVLDEMDQLDSKGQDVLYTLFEWPWLSNSHLVLIGIANTLDLTDRILPRLQAREKCKPQLLNFPPYTRNQIVTILQDRLNQVSRDQVLDNAAVQFCARKVSAVSGDVRKALDVCRRAIEIVESDVKSQTILKPLSECKSPSEPLIPKRVGLIHISQVISEVDGNRMTLSQEGAQDSFPLQQKILVCSLMLLIRQLKIKEVTLGKLYEAYSKVCRKQQVAAVDQSECLSLSGLLEARGILGLKRNKETRLTKVFFKIEEKEIEHALKDKALIGNILATGLP
